Reference: PubChem BioAssay AID1508597 (Cure First, 2020)

Purpose: 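Survival screen with siRNA in ovarian cancer cells derived from patients, with or without rucaparib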 (primary screen)
Cell system: human ovarian carcinoma lines grown from tumours: OCI-P5x (papillary serous) and OCI-C5x (clear cell)
Knock-down reagent: siRNA pool against human genes, 1.25 pmol siRNA per well
Duration: 72 h or 96 h, depending on the cell culture
Conditions: rucaparib 20 µM (about IC30) or vehicle, present until read-out
Rucaparib or vehicle: Rucaparib
Cell line: OCI-C5x (clear cell)
Detection: 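ATP luminescence measured at 72 or 96 h according to the culture, then normalised and expressed as percent viability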
Direction: viability, normalised: higher = more viable cells remaining
Call rule: 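Active when normalised viability falls below 80 percent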
Meaning of the calls: active = viability under 80%; inactive = viability 80% or more
This is a random part of the about 2,100 reagents, under one of the conditions tested. 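Calls flag viability under 80% in either arm, not effects specific to rucaparib; the reference for percent is not stated.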 A reagent listed more than once was tested more than once; the source does not tell the runs apart. The record does not give: the 100% reference.

Target gene	PubChem SID	technical replicate	viability, normalised (%)	outcome
APC (APC regulator of Wnt signaling pathway)	SID405527966	1	52.6	active
APC (APC regulator of Wnt signaling pathway)	SID405527966	1	52	active
APC (APC regulator of Wnt signaling pathway)	SID405527966	2	38.5	active
APC (APC regulator of Wnt signaling pathway)	SID405527966	2	56.7	active
APC (APC regulator of Wnt signaling pathway)	SID405527966	3	46.4	active
APC (APC regulator of Wnt signaling pathway)	SID405527966	3	37.7	active
EP400 (E1A binding protein p400)	SID405526756	1	60.4	active
EP400 (E1A binding protein p400)	SID405526756	2	39.2	active
EP400 (E1A binding protein p400)	SID405526756	3	49.8	active
RBM10 (RNA binding motif protein 10)	SID405527237	1	31.4	active
RBM10 (RNA binding motif protein 10)	SID405527237	2	38.8	active
RBM10 (RNA binding motif protein 10)	SID405527237	3	34.1	active
MAP2K2 (mitogen-activated protein kinase kinase 2)	SID405527827	1	46.7	active
MAP2K2 (mitogen-activated protein kinase kinase 2)	SID405527827	2	51.4	active
MAP2K2 (mitogen-activated protein kinase kinase 2)	SID405527827	3	59.7	active
CAMK2B (calcium/calmodulin dependent protein kinase II beta)	SID405527438	1	35.9	active
CAMK2B (calcium/calmodulin dependent protein kinase II beta)	SID405527438	2	39.3	active
CAMK2B (calcium/calmodulin dependent protein kinase II beta)	SID405527438	3	43	active
COASY (Coenzyme A synthase)	SID405527658	1	47.1	active
COASY (Coenzyme A synthase)	SID405527658	2	37	active
COASY (Coenzyme A synthase)	SID405527658	3	58.1	active
TRIB3 (tribbles pseudokinase 3)	SID405528559	1	55	active
TRIB3 (tribbles pseudokinase 3)	SID405528559	2	46.6	active
TRIB3 (tribbles pseudokinase 3)	SID405528559	3	59.7	active

Part of the list above, reformatted.
| Target gene | PubChem SID | technical replicate | viability, normalised (%) | outcome |
| --- | --- | --- | --- | --- |
| EP400 (E1A binding protein p400) | SID405526756 | 3 | 49.8 | active |
| RBM10 (RNA binding motif protein 10) | SID405527237 | 1 | 31.4 | active |
